Source: paper PMC13208891
These are yes or no findings as the source states them, for the method shown. Some entries that bind do so weakly or less than the wild type.

Amino acid sequences for entries named in this document (tags omitted). A change or cut given only in a name is not applied to a line headed by its entry.
UniProt P35637: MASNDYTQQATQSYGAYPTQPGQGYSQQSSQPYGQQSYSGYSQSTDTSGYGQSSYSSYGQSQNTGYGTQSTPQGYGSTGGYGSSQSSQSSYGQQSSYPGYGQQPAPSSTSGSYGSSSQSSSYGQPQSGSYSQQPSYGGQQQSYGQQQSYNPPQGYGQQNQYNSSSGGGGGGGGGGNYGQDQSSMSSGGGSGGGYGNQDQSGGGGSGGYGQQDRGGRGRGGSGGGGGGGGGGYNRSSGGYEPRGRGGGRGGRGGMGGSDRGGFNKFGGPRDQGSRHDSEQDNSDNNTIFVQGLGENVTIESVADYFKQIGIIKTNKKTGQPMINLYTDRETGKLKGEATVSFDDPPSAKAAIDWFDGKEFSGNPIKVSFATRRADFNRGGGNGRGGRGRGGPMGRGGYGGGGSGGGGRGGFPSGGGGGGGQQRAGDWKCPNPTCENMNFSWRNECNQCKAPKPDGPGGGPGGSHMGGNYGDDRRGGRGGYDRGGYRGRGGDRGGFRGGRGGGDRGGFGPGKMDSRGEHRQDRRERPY
UniProt Q92804: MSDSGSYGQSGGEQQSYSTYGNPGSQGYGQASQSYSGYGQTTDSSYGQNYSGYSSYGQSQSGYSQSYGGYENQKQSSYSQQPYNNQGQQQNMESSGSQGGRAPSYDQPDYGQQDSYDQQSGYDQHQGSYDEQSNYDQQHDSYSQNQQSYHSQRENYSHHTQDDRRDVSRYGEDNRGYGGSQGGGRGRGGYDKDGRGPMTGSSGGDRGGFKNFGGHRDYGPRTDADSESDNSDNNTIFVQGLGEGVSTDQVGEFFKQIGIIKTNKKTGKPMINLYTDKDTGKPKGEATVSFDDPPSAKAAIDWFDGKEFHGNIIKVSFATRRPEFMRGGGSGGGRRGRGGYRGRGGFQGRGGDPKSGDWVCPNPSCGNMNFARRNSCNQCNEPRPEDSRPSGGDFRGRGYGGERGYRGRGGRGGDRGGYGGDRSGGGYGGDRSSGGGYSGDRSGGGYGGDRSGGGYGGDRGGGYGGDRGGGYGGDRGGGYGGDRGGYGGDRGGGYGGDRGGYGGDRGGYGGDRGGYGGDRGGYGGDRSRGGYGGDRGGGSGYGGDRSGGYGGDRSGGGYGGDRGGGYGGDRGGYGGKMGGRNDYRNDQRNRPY

Biological target: FUS expressed as a DB (Gal4 DNA-binding domain) fusion protein (human) (UniProt P35637)
Test: two-hybrid; Gal4 yeast two-hybrid; FUS as DB fusion, TAF15 as AD fusion; diploids of Y8800 x Y8930 spotted on SD/-Leu/-Trp/-His, growth without histidine (HIS3 reporter), 30 °C, 5 days

| binding | Substance |
| --- | --- |
| binds | TAF15 N-terminal deletion mutant (TAF15ΔN, lacking amino acids 1-150), AD fusion (from UniProt Q92804 151-592) (domain or fragment) |
| no binding | TAF15 C-terminal deletion mutant (TAF15ΔC, lacking amino acids 385-592), AD fusion (from UniProt Q92804 1-384) (domain or fragment) |
